Publication PMC8961175
These are yes or no findings as the source states them, for the method shown. In cells and extracts the contact can be indirect. Some results given as binding are weak or reduced against the parent protein; the word gives no strength. For some of these results: Tags and fused reporters may be left off the sequences shown.

Amino acid sequences for entries named in this document (tags omitted). Residues count along the entry.
UniProt Q9NZQ7, residues 19-290: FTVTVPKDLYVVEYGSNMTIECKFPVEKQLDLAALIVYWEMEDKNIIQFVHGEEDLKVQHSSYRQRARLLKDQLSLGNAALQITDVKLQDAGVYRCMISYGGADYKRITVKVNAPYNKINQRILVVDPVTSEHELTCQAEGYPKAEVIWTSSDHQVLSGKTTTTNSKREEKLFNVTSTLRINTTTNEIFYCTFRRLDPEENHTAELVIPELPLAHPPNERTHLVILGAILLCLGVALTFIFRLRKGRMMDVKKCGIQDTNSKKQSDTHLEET
UniProt P49841: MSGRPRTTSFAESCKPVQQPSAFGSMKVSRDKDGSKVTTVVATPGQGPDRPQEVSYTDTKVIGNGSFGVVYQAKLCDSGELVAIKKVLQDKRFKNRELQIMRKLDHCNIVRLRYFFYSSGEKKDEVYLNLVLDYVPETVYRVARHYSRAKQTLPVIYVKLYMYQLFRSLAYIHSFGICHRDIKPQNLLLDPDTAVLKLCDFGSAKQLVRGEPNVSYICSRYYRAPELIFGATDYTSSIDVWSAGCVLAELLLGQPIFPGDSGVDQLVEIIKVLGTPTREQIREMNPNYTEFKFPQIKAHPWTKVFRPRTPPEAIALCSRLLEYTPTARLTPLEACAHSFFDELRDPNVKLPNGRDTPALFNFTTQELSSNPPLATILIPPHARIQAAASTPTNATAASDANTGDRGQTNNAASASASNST

Legend:
[1] = target: T1, purified recombinant GST-eEF2K (UniProt O00418); assay: pull-down; purified GST or GST-eEF2K from bacteria on glutathione-sepharose 4B beads, incubated with GSK3β for 4 hours at 4°C; washed four times with GST binding buffer; blot
T1 sequence: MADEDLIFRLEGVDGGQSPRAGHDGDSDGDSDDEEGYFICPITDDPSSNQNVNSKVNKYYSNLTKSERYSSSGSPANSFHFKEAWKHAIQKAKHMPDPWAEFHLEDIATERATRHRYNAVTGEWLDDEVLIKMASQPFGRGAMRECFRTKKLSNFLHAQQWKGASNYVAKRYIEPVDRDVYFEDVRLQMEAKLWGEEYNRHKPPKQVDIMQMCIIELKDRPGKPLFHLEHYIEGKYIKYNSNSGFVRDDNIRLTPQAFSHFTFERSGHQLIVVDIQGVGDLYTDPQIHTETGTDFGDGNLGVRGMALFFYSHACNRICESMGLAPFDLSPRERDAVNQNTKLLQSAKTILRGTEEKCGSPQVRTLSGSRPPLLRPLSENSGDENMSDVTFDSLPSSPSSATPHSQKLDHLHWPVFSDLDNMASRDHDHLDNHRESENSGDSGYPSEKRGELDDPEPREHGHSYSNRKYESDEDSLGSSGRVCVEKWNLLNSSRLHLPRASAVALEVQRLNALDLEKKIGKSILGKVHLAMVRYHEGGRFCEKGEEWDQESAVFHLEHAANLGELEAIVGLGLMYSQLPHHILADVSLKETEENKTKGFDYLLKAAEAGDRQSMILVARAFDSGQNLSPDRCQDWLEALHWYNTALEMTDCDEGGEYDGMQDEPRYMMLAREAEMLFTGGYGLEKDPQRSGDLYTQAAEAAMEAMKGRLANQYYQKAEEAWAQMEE

[2] = target: T2, Flag-eEF2K (eukaryotic elongation factor 2 kinase) (UniProt O00418); assay: co-IP; HEK293T cells transfected with Flag-eEF2K and HA-GSK3β plasmids; immunoprecipitation with anti-Flag or anti-HA antibodies, then blot; RIPA buffer, 4°C overnight
T2 sequence: T1 sequence

[3] = target: T3, eukaryotic elongation factor 2 kinase (eEF2K), endogenous in A375 cells (human (endogenous in A375)) (UniProt O00418); assay: co-IP; endogenous proteins in A375 cells; immunoprecipitation with the indicated antibodies, then blot; RIPA buffer, 4°C overnight
T3 sequence: T1 sequence

[4] = target: HA-PD-L1 (programmed death ligand-1) (UniProt Q9NZQ7); assay: co-IP; cell lysate precipitated with antibody against HA, blotted for eEF2K (Figure S2); RIPA lysis buffer, protein A/G agarose, 4°C overnight

Molecule: GSK3β used in the GST pulldown assay (from UniProt P49841 1-420) (enzyme)
- binding [1]: binds

Molecule: HA-GSK3β (glycogen synthase kinase 3 beta) (from UniProt P49841 1-420) (enzyme)
- binding [2]: binds

Molecule: glycogen synthase kinase 3 beta (GSK3β), endogenous in A375 cells (from UniProt P49841 1-420) (enzyme)
- binding [3]: binds

B1: eEF2K tested for co-precipitation with HA-PD-L1 (Figure S2) (enzyme, UniProt O00418 1-725)
chain: T1 sequence
- binding [4]: no binding
